The record followed here is patent US12527775B2 (priority 2020, dated 2026).

Protein sequences, listed by entry. Tags and fused reporters are not part of them.
UniProt P28223, whole entry: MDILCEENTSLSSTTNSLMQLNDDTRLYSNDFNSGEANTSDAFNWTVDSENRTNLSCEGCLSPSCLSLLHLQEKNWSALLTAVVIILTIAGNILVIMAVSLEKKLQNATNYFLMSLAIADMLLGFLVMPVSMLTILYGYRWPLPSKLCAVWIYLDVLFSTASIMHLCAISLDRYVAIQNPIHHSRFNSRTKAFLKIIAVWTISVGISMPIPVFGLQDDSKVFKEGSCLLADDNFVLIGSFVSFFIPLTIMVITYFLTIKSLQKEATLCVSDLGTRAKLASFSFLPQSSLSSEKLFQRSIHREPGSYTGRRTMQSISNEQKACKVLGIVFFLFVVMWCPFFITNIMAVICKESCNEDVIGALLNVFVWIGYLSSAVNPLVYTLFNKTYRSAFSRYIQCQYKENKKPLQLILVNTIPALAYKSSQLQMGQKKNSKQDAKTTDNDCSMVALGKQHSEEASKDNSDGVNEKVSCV

Structures were worked out from names or drawings and are uncertain.

In the assay the target is human recombinant 5-HT2A receptor (Homo sapiens (Human), UniProt P28223). To be noted: read-out: h-5-HT2A Ki.

On to `CC(C)COc1ccc(CNC(=O)N(Cc2cc[nH]n2)C2CCN(C)CC2)cc1`, for which the Ki was in the range of 10 to 100 nM.

For orientation: Ki means the dissociation constant of the complex between target and ligand, obtained from inhibition or displacement.
